# From PubChem BioAssay AID1259354 (Paczesny and Yang Labs, IUPUI and University of Michigan, 2018)
# Amino acid sequences for entries named in this document (tags omitted). A change or cut given only in a name is not applied to a line headed by its entry.
# UniProt Q01638: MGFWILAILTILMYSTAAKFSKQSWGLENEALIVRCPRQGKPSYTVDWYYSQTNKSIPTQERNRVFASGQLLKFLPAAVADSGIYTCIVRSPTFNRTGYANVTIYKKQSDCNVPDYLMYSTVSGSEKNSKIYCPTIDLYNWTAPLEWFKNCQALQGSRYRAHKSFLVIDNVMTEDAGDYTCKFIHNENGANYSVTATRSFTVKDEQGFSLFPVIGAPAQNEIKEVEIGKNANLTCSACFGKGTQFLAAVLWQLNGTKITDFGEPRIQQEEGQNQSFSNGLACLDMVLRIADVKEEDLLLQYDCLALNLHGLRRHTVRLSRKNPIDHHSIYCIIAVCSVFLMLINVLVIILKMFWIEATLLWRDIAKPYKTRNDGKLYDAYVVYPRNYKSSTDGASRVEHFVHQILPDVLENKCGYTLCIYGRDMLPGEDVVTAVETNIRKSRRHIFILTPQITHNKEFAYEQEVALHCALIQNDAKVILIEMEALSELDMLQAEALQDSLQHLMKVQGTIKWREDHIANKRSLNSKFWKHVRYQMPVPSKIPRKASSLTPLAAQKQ
# In all, about 78,000 compounds went through this assay and about 1,800 (2.3%) were called active. This list was built around the results that the source calls inconclusive (neither active nor inactive); the mix of calls is not that of the screen. Rule as the data show it: active = inhibition above about 30%; inconclusive = mostly about 10% to 28%; inactive = weaker than that.
# Biological target: Interleukin-1 receptor-like 1 (Homo sapiens) (UniProt Q01638)
# Test: blocks human ST2 binding to IL-33, primary screen, biochemical, AlphaLISA (AID 1259354)
# Settings: AlphaLISA ST2-Fc/biotin-IL-33 interaction, 1 h; at 17 µM, active compounds read high
row,Compound,inhibition
1,CC(NC(=O)CN1C(=O)/C(=C/c2ccccc2F)Sc2ccccc21)c1ccccc1 (stereo not given),inconclusive: 14%
2,Nc1ccc(-c2nc3cc(-c4ccccc4)ccc3o2)cc1,inactive
3,O=C(Nc1cnn(Cc2ccc(Cl)cc2Cl)c1)c1noc2c1CCCCC2,inactive
4,CC1=C(C(=O)OCCOc2ccccc2)C(c2ccccc2Cl)C2=C(CCCC2=O)N1 (stereo not given),inactive
5,O=C(CCCc1cccs1)NCc1cccnc1-n1cnc2ccccc21,inconclusive: 15%
6,Cc1ccc2[nH]cc(CN3CCC(n4cc(CN5CCOCC5)nn4)CC3)c2c1,inactive
7,CNC(=O)C(C)N(C)Cc1nnc(CC2CCNCC2)n1-c1ccccc1 (stereo not given),active: 30%
8,CCOc1ccc(NC(=O)CSc2nnc3sc4ccccc4n23)cc1,inconclusive: 18%
9,O=C(NC1CCCCC1)c1ccc(Cl)c(S(=O)(=O)N2CCCCC2)c1,inactive
10,Cc1ccc2c(c1)c(-c1ccc(O)cc1)nn2C,inconclusive: 15%
11,COc1ccc(N=Cc2ccc(Br)c([N+](=O)[O-])c2)cc1OC,inconclusive: 15%
12,O=C(NCc1ccco1)c1ccc([N+](=O)[O-])cc1Cl,inconclusive: 14%
13,CCCCNc1ncc2cc3ccccc3nc2c1C#N,inconclusive: 20%
14,Cc1ccccc1S(=O)(=O)N1CCN(c2cc(-c3ccc(F)cc3)ncn2)CC1,inactive
15,Cc1cccc2sc(NC(=O)CNS(=O)(=O)c3cccs3)nc12,inactive
16,N#Cc1ccccc1N=Cc1cc2c(cc1[N+](=O)[O-])OCO2,inactive
17,Cc1ccc(CN2CCn3nc(C(=O)NCCN(C)C)cc3C2)s1,inactive
18,Cn1c(=O)c2c(nc3n2CC(c2ccc(Cl)cc2)=NN3CCO)n(C)c1=O,inactive
19,O=C(COc1ccc(Cl)cc1Cl)Nc1ccccc1[N+](=O)[O-],inconclusive: 20%
20,CC(C)N(CCC#N)S(=O)(=O)c1ccc(-c2ccc([N+](=O)[O-])cc2)cc1,inconclusive: 28%
21,COc1cccc(NC(=O)c2cc3c(=O)n4cccc(C)c4nc3n2C)c1,inconclusive: 12%
22,COc1ccc(CN(C)[C@@H]2c3ccccc3C3(CCNCC3)[C@H]2O)cc1O,inconclusive: 10%
23,CCOc1ccc(CCNC(=O)c2cccn2-c2nnc(N3CCCCC3)s2)cc1,inconclusive: 10%
24,CC1CC(C)CN(S(=O)(=O)c2ccc(C(=O)Nc3nc(-c4ccccn4)cs3)cc2)C1 (stereo not given),inconclusive: 21%

row,Compound,inhibition
1,Cc1cc(NC(=O)c2cccc(S(=O)(=O)Nc3cc(C)on3)c2)no1,inactive
2,COc1ccc(N=Cc2ccc(OCc3ccccc3)cc2)cc1OC,active: 33%
3,CCn1cc(C2=NCC(C)O2)c2ccccc21 (stereo not given),inconclusive: 12%
4,Cc1cc(C(F)(F)F)n2nc(C(=O)N3CCCC(c4ccn[nH]4)C3)cc2n1 (stereo not given),inconclusive: 20%
5,c1ccc2c(c1)Cc1cc(CN3CCn4cncc4C3)ccc1-2,inconclusive: 23%
6,Cc1cccc(OCC(=O)Nc2cccc(C(=O)c3ccccc3)c2)c1,inactive
7,CCN(CC)CCNC(=O)c1cn(CC)c2ccc(S(=O)(=O)N3CCC(C)CC3)cc2c1=O,inconclusive: 12%
8,O=C1C(Nc2ccccc2)=CC(c2cccc(F)c2)N1c1ccccc1 (stereo not given),inactive
9,CN1[C@@H](CCC(=O)N2CCOCC2)CNC(=O)[C@H]2NCC[C@H]21,inconclusive: 16%
10,COc1ccc(N2C(N)=C(C#N)C(c3ccsc3)C3=C2CC(C)(C)CC3=O)c(OC)c1 (stereo not given),inconclusive: 17%
11,O=C1CN(CC(=O)N2CCCC(Nc3cccc(F)c3)C2)C(=O)N1 (stereo not given),inconclusive: 17%
12,CC(C)c1ccc(NC(=O)C(=O)NCc2ccc3c(c2)OCO3)cc1,inconclusive: 12%
13,COc1cc(OC)cc(C(C)C(=O)c2ccc(O)cc2O)c1 (stereo not given),inconclusive: 11%
14,CCOC(=O)c1cc(-c2ccccc2)sc1NC(=O)CSc1nnc2ccccn12,inconclusive: 18%
15,COC(=O)c1ccc2c(c1)NC(=O)C(N1CCCC1)S2 (stereo not given),inconclusive: 10%
16,CCC1=NC(c2cc(Br)ccc2O)N(O)C1(C)C (stereo not given),inconclusive: 18%
17,COc1ccc(N(C(=O)Cc2ccc(OC)c(OC)c2)C2C=CS(=O)(=O)C2)cc1 (stereo not given),inactive
18,CCOc1ccc(Nc2nc(C)c([N+](=O)[O-])c(N(C)c3ccccc3)n2)cc1,inconclusive: 13%
19,COc1ccc(OC)c(CNC(=O)CN2C(=O)c3cccnc3Sc3ccccc32)c1,inconclusive: 13%
20,Cc1cccc(N2CCN(S(=O)(=O)c3cccc4cccnc34)CC2C)c1 (stereo not given),inactive
21,Cc1ccc(/C=C(/C#N)c2nc(-c3ccc(Br)cc3)cs2)o1,active: 52%
22,O=C(CSc1nnc2sc3ccccc3n12)Nc1ccccc1F,inconclusive: 11%
23,COc1ccc(C2c3sc(=O)[nH]c3SC3C(=O)N(c4ccc(Cl)cc4)C(=O)C32)cc1 (stereo not given),inconclusive: 27%
24,c1ccc(CCCN2CC[C@H](c3nc4ccccc4[nH]3)C2)cc1,inconclusive: 16%

row,Compound,inhibition
1,Cc1ccccc1N1C(=O)c2cccnc2C1=O,inactive
2,COc1ccccc1NC1=CC(=NS(=O)(=O)c2cccs2)c2ccccc2C1=O,active: 90%
3,CC(=O)Nc1nc(SCc2ccccc2Cl)n[nH]1,inactive
4,Cc1ccn2c(F)c(C(=O)N3[C@@H]4CC[C@H]3CN(C)C(=O)C4)nc2c1,inconclusive: 15%
5,COCCN(Cc1cccs1)C(=O)c1nccnc1C(=O)N1CCCCC1,inconclusive: 10%
6,Cc1c(NC(=O)CSc2ncn[nH]2)c(=O)n(-c2ccccc2)n1C,inconclusive: 14%
7,O=C1NCC2=C1C(c1ccc(Br)cc1)Nc1ccccc1N2 (stereo not given),inconclusive: 17%
8,Cc1ccc(Cl)cc1-c1ccc(/C=C/[N+](=O)[O-])o1,active: 51%
9,CC(Cc1ccccn1)N(C)C(=O)c1ccc(CSc2ncccn2)o1 (stereo not given),inconclusive: 12%
10,Nc1ncc(-c2cccs2)s1,inconclusive: 21%
11,CC(=O)N1N=C(c2ccc(Br)cc2)CC1c1ccc2ncccc2c1 (stereo not given),inactive
12,Cc1ccc(-n2cnc3sc4c(c3c2=O)CCCC4)cc1,inactive
13,CC(C)CN1CCN(c2ccc(C(F)(F)F)cn2)C(C)C1=O (stereo not given),inconclusive: 12%
14,Cc1ccccc1CSc1c[nH]c2ccccc12,inactive
15,O=C(Nc1ccccc1)N[C@H]1CO[C@H]2[C@@H]1OC[C@H]2OC(=O)Nc1ccccc1,inconclusive: 22%
16,c1ccc(-c2nc(CN3CCC4(CCCN(CC5CCC5)C4)C3)co2)cc1 (stereo not given),inconclusive: 13%
17,O=C(CSc1cn(CCNC(=O)c2ccc(F)cc2)c2ccccc12)NCc1ccco1,inconclusive: 12%
18,CCN(CC)C(=O)C1c2cc(OC)c(OC)cc2C(=O)N(C)C1c1ccccc1F (stereo not given),inconclusive: 13%
19,O=C(Nc1cccc(O)c1)c1noc2c1CCc1ccccc1-2,inconclusive: 12%
20,COc1cccc(NC(=O)C2CCCN2C(=O)c2ccc(-c3noc(C)n3)cc2)c1 (stereo not given),inconclusive: 17%
21,CCOc1ccc(N2C(=O)CC(Sc3nc4c(cc3C#N)CCC4)C2=O)cc1 (stereo not given),inactive
22,O=C(COC(=O)c1cccs1)c1ccc2c(c1)OCCO2,inconclusive: 12%
23,CC1CCCC(NC(=O)CN2C(=O)/C(=C/c3ccccc3F)Sc3ccccc32)C1C (stereo not given),active: 32%
24,Cc1ccc(S(=O)(=O)NC2CC(=O)N(Cc3cccc(F)c3)C2)c(C)c1 (stereo not given),inactive

# Gathered by group: the entries above with a CF3 group
row,Compound,inhibition
4,Cc1cc(C(F)(F)F)n2nc(C(=O)N3CCCC(c4ccn[nH]4)C3)cc2n1 (stereo not given),inconclusive: 20%
13,CC(C)CN1CCN(c2ccc(C(F)(F)F)cn2)C(C)C1=O (stereo not given),inconclusive: 12%

# Going on with the list.

row,Compound,inhibition
1,CCCS(=O)(=O)N1CCCC(C(=O)NCCN(C)C)C1 (stereo not given),inactive
2,CC(C)CN1C(=O)N(C)C(=O)C12CCN(Cc1nccs1)CC2,inconclusive: 20%
3,Cc1nc2sc(C(=O)N3CCC4(CCCO4)CC3)c(C)c2c(=O)[nH]1,inconclusive: 16%
4,Cc1ccc(CNC(=O)CN(C)S(=O)(=O)c2ccc(Br)cc2)cc1,inactive
5,O=C(CNC1=NCCC1)c1ccc(Br)cc1,inconclusive: 18%
6,COc1cc(OC)c(OC)cc1CN1CCC(O)CC1,inconclusive: 15%
7,O=S(=O)(c1ccccc1S(=O)(=O)N1CCCCC1)N1CCCCC1,inconclusive: 11%
8,C#CCNC(=O)C[C@@H]1C[C@@H](C(C)C)[C@H](CNC(=O)c2ccccc2)C=C1C,inconclusive: 10%
9,COc1ccc(N2C(N)=C(C#N)C(c3ccc4c(c3)OCO4)C3=C2CC(C)(C)CC3=O)c(OC)c1 (stereo not given),inconclusive: 13%
10,O=C(c1cccc(F)c1)N1CCN(S(=O)(=O)c2cc3c4c(c2)CCN4C(=O)CC3)CC1,inconclusive: 14%
11,O=C1Nc2ccc([N+](=O)[O-])cc2C1=Nc1ccc(C(=O)O)cc1,inconclusive: 15%
12,COC(=O)c1c(C)oc2ccc(OC(=O)c3ccc(C)cc3)cc12,inactive
13,CC(C)c1cc(C2CCN(C(=O)CCn3cnnn3)CC2)[nH]n1,inconclusive: 10%
14,CNC(=O)c1c(NC(=O)C2CC(C(C)C)=NO2)sc2c1CCCC2 (stereo not given),inconclusive: 23%
15,COC(=O)c1ccc(S(=O)(=O)c2ccc(Cl)cc2)c(N)c1,inconclusive: 17%
16,CCc1nc(N)sc1C(=O)N1CCC2(CCOCC2)CC1,inactive
17,CN1CC2(CCCN(C(=O)c3cc(=O)[nH]c4ccc(F)cc34)CC2)OC1=O (stereo not given),inconclusive: 12%
18,COc1ccc(C2C3C(=O)NC(=O)C3ON2c2ccc(Cl)cc2)cc1 (stereo not given),active: 31%
19,C=CCNCc1cccn1-c1sc2c(c1C#N)CCCC2,inconclusive: 22%
20,Cc1ccccc1OCc1nc(C#N)c(N2CCC(C(N)=O)CC2)o1,inconclusive: 26%
21,O=S(=O)(N[C@H]1CO[C@H]2[C@@H]1OC[C@@H]2Nc1nccc(-c2cccs2)n1)c1ccc2ccccc2c1,inactive
22,CC(=O)N1CCN(c2ncccc2CNC(=O)CCCc2cccs2)CC1,inactive
23,COc1ccc(NC(=O)COc2ccccc2)c([N+](=O)[O-])c1,inactive

# Single entries from the entries so far:
# inhibition with COc1ccc(C2C3C(=O)NC(=O)C3ON2c2ccc(Cl)cc2)cc1 (stereo not given) is entered as active: 31%
# inhibition with C=CCNCc1cccn1-c1sc2c(c1C#N)CCCC2 is entered as inconclusive: 22%
